Data published in doi:10.1101/2024.09.30.615666.
Results are given in words; binding and its absence hold for the method and conditions named. In cells and extracts the contact can be indirect. Some entries that bind do so weakly or less than the wild type. For some of these results: Tags and fused reporters may be left off the sequences shown.

Chains of the proteins cited; added tags and fusions are not shown. Residues count along the entry.
UniProt P49790: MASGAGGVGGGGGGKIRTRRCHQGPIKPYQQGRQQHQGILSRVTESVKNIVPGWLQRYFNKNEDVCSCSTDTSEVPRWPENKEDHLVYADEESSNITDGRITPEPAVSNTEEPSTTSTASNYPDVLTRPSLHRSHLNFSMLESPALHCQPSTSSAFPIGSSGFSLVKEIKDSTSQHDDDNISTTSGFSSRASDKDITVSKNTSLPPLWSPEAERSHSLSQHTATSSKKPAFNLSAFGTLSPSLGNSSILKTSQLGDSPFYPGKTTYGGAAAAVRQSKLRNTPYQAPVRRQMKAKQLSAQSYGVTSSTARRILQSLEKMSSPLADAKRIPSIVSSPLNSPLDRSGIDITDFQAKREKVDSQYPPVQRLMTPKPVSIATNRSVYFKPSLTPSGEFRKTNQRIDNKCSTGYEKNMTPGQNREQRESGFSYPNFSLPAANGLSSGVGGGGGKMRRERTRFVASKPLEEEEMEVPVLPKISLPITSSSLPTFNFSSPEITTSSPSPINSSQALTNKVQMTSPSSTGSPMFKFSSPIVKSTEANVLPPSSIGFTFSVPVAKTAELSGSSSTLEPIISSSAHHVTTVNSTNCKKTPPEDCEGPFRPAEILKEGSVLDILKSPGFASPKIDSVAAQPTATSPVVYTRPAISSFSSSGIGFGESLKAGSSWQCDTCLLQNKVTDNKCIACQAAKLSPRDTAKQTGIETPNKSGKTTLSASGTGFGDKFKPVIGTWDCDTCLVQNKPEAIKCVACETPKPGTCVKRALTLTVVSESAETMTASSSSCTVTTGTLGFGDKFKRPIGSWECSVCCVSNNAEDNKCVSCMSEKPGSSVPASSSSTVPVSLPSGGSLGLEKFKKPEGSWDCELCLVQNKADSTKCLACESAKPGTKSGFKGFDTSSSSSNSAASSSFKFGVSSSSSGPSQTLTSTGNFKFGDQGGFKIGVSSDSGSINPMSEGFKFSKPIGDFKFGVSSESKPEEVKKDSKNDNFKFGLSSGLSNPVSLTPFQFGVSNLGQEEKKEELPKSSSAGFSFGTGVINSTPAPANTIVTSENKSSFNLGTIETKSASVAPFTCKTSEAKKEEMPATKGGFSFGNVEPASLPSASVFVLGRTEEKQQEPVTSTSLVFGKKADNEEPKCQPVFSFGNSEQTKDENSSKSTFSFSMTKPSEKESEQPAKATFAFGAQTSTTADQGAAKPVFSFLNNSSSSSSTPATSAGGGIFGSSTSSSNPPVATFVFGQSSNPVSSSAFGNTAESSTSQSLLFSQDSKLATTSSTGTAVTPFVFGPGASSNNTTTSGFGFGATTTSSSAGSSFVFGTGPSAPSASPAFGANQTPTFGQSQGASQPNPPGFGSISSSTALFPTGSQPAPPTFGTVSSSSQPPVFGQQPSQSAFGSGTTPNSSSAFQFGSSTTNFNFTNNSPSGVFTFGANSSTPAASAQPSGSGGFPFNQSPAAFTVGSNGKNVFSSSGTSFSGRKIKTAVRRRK
UniProt P52948, residues 1-880: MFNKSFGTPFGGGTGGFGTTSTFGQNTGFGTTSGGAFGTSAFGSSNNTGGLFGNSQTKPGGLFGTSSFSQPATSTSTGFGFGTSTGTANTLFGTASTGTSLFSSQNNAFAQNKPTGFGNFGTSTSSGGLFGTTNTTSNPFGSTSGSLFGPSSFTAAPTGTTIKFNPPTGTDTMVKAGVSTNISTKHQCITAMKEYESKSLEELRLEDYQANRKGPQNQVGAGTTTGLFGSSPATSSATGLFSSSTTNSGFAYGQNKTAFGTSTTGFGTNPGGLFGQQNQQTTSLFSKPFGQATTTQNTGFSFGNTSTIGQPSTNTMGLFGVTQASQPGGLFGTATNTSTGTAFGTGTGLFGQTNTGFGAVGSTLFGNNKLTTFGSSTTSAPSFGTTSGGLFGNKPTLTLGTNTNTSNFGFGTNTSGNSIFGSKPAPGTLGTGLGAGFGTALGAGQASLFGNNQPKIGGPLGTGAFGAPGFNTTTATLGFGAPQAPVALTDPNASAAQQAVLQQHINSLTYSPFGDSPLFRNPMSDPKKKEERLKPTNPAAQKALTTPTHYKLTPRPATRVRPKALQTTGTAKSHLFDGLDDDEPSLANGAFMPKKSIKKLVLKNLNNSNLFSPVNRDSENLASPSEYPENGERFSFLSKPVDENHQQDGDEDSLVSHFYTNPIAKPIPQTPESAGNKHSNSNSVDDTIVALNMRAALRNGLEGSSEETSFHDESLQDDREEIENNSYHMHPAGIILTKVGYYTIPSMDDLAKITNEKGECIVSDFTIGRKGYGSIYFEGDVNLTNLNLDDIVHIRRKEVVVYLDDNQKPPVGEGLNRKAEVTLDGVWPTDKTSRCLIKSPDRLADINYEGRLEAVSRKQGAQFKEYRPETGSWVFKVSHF
UniProt P12270: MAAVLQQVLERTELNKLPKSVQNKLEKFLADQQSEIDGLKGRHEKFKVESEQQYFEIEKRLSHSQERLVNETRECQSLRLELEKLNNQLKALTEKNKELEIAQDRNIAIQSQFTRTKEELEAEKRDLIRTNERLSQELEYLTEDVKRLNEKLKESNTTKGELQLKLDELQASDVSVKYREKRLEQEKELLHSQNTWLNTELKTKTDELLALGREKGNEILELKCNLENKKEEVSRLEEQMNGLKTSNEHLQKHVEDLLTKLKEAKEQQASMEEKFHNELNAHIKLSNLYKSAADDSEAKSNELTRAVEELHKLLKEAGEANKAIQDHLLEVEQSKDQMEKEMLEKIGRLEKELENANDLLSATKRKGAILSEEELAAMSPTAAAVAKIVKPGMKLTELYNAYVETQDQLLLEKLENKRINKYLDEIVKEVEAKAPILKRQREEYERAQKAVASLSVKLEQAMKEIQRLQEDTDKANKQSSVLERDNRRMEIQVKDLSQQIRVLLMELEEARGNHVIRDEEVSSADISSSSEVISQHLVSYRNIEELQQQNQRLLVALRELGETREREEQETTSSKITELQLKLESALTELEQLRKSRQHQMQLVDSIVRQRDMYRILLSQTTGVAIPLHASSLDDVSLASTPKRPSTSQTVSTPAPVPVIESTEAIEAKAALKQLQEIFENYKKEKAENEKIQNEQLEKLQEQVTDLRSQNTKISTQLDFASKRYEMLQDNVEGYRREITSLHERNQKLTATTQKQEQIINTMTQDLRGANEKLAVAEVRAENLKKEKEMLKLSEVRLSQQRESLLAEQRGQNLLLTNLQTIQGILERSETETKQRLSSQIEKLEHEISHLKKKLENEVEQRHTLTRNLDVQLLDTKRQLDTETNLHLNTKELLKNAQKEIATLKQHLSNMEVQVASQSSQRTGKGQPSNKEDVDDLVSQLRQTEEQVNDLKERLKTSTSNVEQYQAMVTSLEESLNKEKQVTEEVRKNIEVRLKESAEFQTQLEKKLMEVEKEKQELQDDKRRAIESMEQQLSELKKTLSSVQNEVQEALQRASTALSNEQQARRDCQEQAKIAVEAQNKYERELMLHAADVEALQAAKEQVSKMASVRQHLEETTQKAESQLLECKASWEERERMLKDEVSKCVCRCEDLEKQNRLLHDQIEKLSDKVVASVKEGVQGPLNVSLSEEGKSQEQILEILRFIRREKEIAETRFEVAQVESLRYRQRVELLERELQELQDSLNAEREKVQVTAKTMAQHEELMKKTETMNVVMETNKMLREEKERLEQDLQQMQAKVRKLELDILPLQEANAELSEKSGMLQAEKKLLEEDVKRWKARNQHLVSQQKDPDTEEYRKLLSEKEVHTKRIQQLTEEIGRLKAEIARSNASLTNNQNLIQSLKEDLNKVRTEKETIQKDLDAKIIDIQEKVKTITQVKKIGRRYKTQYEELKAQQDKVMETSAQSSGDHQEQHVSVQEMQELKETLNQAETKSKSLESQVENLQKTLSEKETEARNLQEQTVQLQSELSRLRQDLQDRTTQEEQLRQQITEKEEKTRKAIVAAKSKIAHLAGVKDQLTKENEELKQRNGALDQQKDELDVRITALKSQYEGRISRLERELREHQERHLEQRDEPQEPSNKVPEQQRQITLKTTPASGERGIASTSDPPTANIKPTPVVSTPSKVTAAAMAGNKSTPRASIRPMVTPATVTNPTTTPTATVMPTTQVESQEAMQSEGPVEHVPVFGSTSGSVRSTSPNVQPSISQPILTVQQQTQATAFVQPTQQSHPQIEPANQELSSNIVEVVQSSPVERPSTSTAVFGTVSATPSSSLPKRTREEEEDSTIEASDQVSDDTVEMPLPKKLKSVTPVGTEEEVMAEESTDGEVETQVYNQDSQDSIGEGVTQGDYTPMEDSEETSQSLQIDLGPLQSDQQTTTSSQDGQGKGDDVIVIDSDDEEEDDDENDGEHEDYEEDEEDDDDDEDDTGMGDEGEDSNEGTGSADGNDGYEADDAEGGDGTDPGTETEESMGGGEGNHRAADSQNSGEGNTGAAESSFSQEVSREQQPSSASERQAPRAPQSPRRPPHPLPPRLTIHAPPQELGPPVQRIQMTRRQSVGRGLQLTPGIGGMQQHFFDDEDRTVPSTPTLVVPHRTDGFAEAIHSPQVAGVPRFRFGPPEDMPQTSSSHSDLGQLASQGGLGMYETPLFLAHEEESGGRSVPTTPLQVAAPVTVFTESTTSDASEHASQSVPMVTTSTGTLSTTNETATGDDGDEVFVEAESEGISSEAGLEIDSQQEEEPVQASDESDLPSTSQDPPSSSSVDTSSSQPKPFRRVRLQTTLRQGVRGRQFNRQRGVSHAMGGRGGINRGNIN
UniProt P29590: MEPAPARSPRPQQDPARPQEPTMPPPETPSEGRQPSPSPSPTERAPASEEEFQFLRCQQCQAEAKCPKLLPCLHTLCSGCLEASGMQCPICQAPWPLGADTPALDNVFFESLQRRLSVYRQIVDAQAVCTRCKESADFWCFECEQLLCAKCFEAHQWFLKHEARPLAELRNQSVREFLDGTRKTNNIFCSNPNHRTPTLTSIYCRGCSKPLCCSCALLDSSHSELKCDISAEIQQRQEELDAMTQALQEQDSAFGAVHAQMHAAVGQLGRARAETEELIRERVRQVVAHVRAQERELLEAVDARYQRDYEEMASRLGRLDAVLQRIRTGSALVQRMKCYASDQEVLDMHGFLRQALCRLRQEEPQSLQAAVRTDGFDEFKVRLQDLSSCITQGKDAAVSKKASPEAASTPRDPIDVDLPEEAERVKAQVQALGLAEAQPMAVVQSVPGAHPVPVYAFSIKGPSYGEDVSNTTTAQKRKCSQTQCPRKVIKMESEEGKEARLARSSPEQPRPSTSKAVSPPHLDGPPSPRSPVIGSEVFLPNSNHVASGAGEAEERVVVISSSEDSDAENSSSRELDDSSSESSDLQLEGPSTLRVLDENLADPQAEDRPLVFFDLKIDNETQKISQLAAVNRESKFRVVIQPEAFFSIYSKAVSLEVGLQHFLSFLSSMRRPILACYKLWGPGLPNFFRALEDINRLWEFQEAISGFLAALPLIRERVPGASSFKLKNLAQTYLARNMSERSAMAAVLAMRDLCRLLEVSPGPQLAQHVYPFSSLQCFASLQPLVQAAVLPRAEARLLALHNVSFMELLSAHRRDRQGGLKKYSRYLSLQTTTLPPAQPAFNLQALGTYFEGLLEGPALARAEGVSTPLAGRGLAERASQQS
UniProt Q13838: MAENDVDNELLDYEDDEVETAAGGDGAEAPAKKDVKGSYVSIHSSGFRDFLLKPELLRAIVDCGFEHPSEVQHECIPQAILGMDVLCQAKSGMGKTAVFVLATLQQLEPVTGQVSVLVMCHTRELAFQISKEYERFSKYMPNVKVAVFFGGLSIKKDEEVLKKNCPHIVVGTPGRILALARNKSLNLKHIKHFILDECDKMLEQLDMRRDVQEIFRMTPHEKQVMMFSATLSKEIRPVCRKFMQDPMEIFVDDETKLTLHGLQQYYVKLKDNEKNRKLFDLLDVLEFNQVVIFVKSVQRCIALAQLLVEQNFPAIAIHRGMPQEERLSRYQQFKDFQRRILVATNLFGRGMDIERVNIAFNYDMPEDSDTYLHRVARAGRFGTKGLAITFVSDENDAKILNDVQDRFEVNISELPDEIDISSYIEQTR
UniProt Q9UNP9: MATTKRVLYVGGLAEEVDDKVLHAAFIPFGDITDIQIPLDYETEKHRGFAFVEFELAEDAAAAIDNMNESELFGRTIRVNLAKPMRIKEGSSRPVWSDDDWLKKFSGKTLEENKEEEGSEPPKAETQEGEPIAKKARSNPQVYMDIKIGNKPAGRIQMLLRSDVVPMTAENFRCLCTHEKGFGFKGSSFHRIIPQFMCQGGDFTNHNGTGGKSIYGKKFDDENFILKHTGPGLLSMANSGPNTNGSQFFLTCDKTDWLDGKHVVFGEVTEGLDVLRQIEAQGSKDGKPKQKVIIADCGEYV

Tests used:
[1] = target: eGFP:Nup153 (UniProt P49790); assay: co-IP
[2] = target: Nup98 (human (endogenous in Jurkat)) (UniProt P52948); assay: proximity ligation
[3] = target: Nup153 (human (endogenous in Jurkat and HEK293T)) (UniProt P49790); assay: proximity ligation
[4] = target: TPR (human (endogenous in Jurkat)) (UniProt P12270); assay: proximity ligation
[5] = target: T1, Histidine-tagged AQR (UniProt O60306); assay: pull-down
T1 sequence: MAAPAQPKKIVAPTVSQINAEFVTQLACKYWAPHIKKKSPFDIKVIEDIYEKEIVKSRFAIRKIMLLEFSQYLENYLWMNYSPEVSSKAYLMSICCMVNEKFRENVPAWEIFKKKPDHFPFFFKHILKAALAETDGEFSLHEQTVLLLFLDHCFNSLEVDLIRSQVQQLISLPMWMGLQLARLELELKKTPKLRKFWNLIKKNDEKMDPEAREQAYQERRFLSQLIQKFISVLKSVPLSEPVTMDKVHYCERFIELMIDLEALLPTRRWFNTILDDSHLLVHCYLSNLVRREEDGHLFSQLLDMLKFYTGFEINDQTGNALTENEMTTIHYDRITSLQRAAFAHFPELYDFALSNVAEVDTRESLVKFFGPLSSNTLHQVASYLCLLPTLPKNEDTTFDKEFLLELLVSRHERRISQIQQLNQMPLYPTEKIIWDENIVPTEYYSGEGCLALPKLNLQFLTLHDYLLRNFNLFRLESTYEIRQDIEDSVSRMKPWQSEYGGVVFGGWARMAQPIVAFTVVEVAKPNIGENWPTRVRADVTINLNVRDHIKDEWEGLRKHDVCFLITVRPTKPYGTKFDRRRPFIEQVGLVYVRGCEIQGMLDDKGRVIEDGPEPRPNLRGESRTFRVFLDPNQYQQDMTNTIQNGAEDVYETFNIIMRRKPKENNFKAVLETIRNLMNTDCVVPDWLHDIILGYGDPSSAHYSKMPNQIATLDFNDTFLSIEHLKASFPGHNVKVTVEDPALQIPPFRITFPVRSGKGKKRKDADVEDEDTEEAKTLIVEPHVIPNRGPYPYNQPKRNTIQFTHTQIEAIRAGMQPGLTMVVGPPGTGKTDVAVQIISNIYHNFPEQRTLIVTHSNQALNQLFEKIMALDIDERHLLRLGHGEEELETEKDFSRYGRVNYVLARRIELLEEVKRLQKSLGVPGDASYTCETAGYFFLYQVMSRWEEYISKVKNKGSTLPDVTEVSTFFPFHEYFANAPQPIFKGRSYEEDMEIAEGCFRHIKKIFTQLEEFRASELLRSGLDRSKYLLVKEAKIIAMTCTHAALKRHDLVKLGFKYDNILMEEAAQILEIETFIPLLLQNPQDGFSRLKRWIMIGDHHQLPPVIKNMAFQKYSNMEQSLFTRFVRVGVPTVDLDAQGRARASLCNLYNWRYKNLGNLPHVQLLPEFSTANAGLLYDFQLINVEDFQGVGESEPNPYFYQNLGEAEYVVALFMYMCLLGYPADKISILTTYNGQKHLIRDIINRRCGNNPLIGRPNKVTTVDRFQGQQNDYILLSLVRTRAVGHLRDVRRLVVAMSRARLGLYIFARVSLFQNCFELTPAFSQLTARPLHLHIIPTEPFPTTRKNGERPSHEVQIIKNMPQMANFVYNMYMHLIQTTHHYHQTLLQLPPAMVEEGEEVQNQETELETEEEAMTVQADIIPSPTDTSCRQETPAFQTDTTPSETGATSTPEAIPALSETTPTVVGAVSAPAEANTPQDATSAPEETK

Substance | binding [1] | binding [3] | further results
PML (from UniProt P29590 1-882) |  |  | binding [4]: no binding
TPR (from UniProt P12270 1-2363) |  | binds | 
eGFP:Nup153 (from UniProt P49790 1-1475) |  |  | binding [5]: binds

Second part, led by results:

binding [1] | binding [3] | Substance | further results
binds | binds | DDX39b (from UniProt Q13838 1-428) | binding [2]: binds
binds |  | PPIE (from UniProt Q9UNP9 1-301) | 
